Test results taken from PubChem BioAssay AID493014 (National Center for Advancing Translational Sciences (NCATS), 2011).
Out of some 340,000 compounds screened, about 170 (0.05%) were called active. This list was built around the results that the source calls inconclusive (neither active nor inactive); the mix of calls is not that of the screen. Calls follow the shape of the dose curve; as a rule, active = well fitted inhibition curve with a large enough effect in the signal ratio, with a control signal flat (not every such curve was filed as active); inconclusive = small, poorly fitted or top-dose-only effect, or effect the other way, or a change in a side signal; inactive = flat fitted curve, though single readings scatter; the % refers to the signal ratio. A potency beside an inconclusive call is a rough fit, not a confirmed value.

experiment: qHTS Assay to Find Inhibitors of Chronic Active B-Cell Receptor Signaling; conditions: ABC-DLBCL IkBa-CBG/CBR reporter, luminescence ratio (green luciferase fused to IkBa over red control in TMD8 lymphoma cells), 4 h; activity change, negative = inhibition: at 46.1 µM (top of the series);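 as to activity change, negative = inhibition: plate controls were basal doxycycline-induced cells for no effect and cells given 10 µM MG132 for full effect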
How it was run: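 Compounds up to 46 uM were incubated four hours with TMD8 cells whose green CBG68 luciferase is fused to IkappaBalpha; red CBR luminescence normalised the signal, and concentration-effect curves were fitted to fusion, red and ratio data.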
Potency is read from the fitted curve at half-maximal effect.

Row | SMILES | activity change, negative = inhibition | Potency
1 | CCCCOC(=O)Nc1nnc(/C=C/c2ccc(OC)cc2)s1 | inactive: -0.783% | 
2 | Oc1c(Cl)cc(Cl)cc1C=Nc1cc(C(F)(F)F)ccc1N1CCc2ccccc2C1 |  | inconclusive: 25.1 µM [falling, single point]
3 | CCc1cccc(NC(=O)CCNS(=O)(=O)c2ccc3[nH]c(=O)oc3c2)c1 | inconclusive: -15.5% | 
4 | Cc1onc(-c2ccccc2)c1CNC(=O)C1COc2ccccc2O1 (stereo not drawn) | inconclusive: 14.6% | 
5 | O=C(COC(=O)c1cccc(O)c1)Nc1ccc(S(=O)(=O)N2CCOCC2)cc1 | inactive: -2.27% | 
6 | Cc1ccc(NC(=O)NCc2ccc3c(c2)OCO3)cc1C | inconclusive: -4.54% | 
7 | Cc1cccc(C)c1Nc1ncnc(N)c1[N+](=O)[O-] | inactive: -14.2% | 
8 | CCN(CC)C(=O)CNc1ccc(C(F)(F)F)cc1[N+](=O)[O-] | inconclusive: 5.94% | 
9 | Cc1c(OCC(=O)NCCN2CCOCC2)ccc2c3c(c(=O)oc12)CCC3 | inconclusive: -2.07% | 
10 | O=C(NCc1cn2ccccc2n1)c1ccc(Br)o1 | inconclusive: -7.52% | 
11 | Cn1c(=O)[nH]c(=O)c2c1nc(Br)n2CC(O)c1ccccc1 (stereo not drawn) | inconclusive: 6.27% | 
12 | CCOC(=O)c1c(CSc2ccccc2)oc2ccc(O)cc12 | inconclusive: -0.964% | 
13 | CCOc1ccc(CCNC(=O)c2cc(-c3ccccc3)c(N3CCOCC3)s2)cc1OCC | inconclusive: 21% | 
14 | COc1ccc(/C=C/c2nc(-c3ccccc3O)n[nH]2)cc1 |  | inconclusive: 3.26 µM [falling, partial curve]
15 | COc1ccc(N2C(=O)/C(=C\c3ccco3)N=C2SCC(=O)NC(C)C)cc1Cl |  | inconclusive: 23.1 µM [falling, single point]
16 | COC(=O)C1=CN(Cc2cccs2)C=C(C(=O)OC)C1c1cccc(OC)c1OC | inactive: -0.516% | 
17 | S=c1[nH]nc2c3c4c(sc3ncn12)CCCC4 |  | inconclusive: 9.2 µM [rising, partial curve, poor fit]
18 | CCOc1ccc(-n2cnnn2)cc1S(=O)(=O)NCc1ccccc1 | inconclusive: 7.13% | 
19 | Cc1cccc(N(C)C(=O)c2cc3cc4ccc(C)cc4nc3o2)c1 | inconclusive: 3.46% | 
20 | COc1ccc(NC(C#N)c2ccccc2OCc2ccccc2)cc1 (stereo not drawn) |  | inconclusive: 1.84 µM [falling, partial curve, poor fit]
21 | CCOC(=O)c1ccc(NC2Nc3cc(C)nn3S2)cc1 (stereo not drawn) | inconclusive: 1.27% | 
22 | Cc1ccc(C)c(Cn2c(=O)c3c(nc4n3CCN4Cc3ccco3)n(C)c2=O)c1 |  | inconclusive: 35.5 µM [rising, single point]
23 | O=C(Nc1cccc(Cl)c1)Nn1cnnc1 | inactive: 3.55% | 
24 | c1ccc(CCSc2nccn2-c2ccccc2)cc1 |  | inconclusive: 22.4 µM [falling, single point]
25 | Cc1ccc2[nH]c3c(NCc4ccccc4)ncnc3c2c1 | inactive: 16.2% | 
26 | COc1ccc(CC2c3cc(OC)c(OC)cc3CC[N+]2(C)CCC(=O)OCCCCCOC(=O)CC[N+]2(C)CCc3cc(OC)c(OC)cc3C2Cc2ccc(OC)c(OC)c2)cc1OC (stereo not drawn) |  | inconclusive: 29.1 µM [falling, single point]
27 | CCCOC(=O)c1c(NC(=O)/C=C/c2cnn(C)c2C)sc(C(=O)OCC)c1C | inconclusive: -29.6% | 

Row | SMILES | activity change, negative = inhibition | Potency
28 | O=C(Cc1cccs1)NCc1ccccc1F | inconclusive: 11.5% | 
29 | Cc1ccc(C(=O)NC2CCCCNC2=O)cc1C (stereo not drawn) |  | inconclusive: 11.2 µM [falling, partial curve]
30 | CCCCOc1ccc(C(=O)NNC(=O)c2cnccn2)cc1OC | inactive: -0.3% | 
31 | O=C(c1ccc(CNS(=O)(=O)c2ccccc2)cc1)N1CCN(Cc2ccccc2)CC1 |  | inconclusive: 25.9 µM [falling, partial curve, poor fit]
32 | Cc1ccc(Sc2ncccc2[N+](=O)[O-])cc1 | inactive: 2.04% | 
33 | O=[N+]([O-])c1ncccc1OCc1ccc(Cl)c(Cl)c1 | inconclusive: -2.15% | 
34 | COc1ccc(C)cc1NC(=O)c1cc2c(=O)n3ccccc3nc2n1C | inconclusive: -1.5% | 
35 | COc1ccc(N=Cc2[nH]c3ccccc3c2O)cc1 |  | inconclusive: 20 µM [falling, partial curve, poor fit]
36 | COc1ccc(/C=N/Nc2cc(C)nc3ccc(OC)cc23)c(OC)c1 | inconclusive: 12.9% | 
37 | CSc1nc(C)c2cc(C)oc2n1 | inconclusive: 0.42% | 
38 | CCCCC(=O)NC(c1ccco1)c1cc(Cl)c2cccnc2c1O (stereo not drawn) | inconclusive: 4.67% | 
39 | CO/N=C/c1ccc(Sc2ccccc2)c([N+](=O)[O-])c1 | inconclusive: 16.7% | 
40 | CCOC(=O)c1c(-c2ccccc2)csc1NC(=O)c1cccc(N2C(=O)CCC2=O)c1 | inactive: 5.19% | 
41 | Cc1cccc(-n2c(N)cc(=O)nc2SC(C)C(=O)NC2CCCCC2)c1 (stereo not drawn) | inconclusive: -0.192% | 
42 | O=C(CSCc1ccc(F)cc1)NCc1ccco1 | inconclusive: 24.6% | 
43 | CCN(CC)S(=O)(=O)c1cc([N+](=O)[O-])ccc1NNC(=O)Nc1ccc(Cl)c(Cl)c1 | inconclusive: 21.5% | 
44 | O=C(Nc1ccc(C(=O)N2CCOCC2)cc1)c1cc(-c2cccnc2)nc2ccc(Br)cc12 | inactive: -5.58% | 
45 | Cc1ccccc1C(=O)N/N=C/c1ccncc1 |  | inconclusive: 14.1 µM [falling, partial curve]
46 | O=[N+]([O-])c1cc(S(=O)(=O)NCCN2CCOCC2)ccc1Sc1nnnn1-c1ccccc1 | inconclusive: -9.43% | 
47 | CCCCNC(=O)Nc1ccc2c(c1)N(C)C(=O)c1ccccc1S2 | inactive: -13.4% | 
48 | COc1ccc2[nH]c3c(=O)n(CCN4CCOCC4)cnc3c2c1 | inconclusive: -0.925% | 
49 | NS(=O)(=O)c1ccc(CCNC(=O)Nc2ccc(Cl)c(Cl)c2)cc1 | inconclusive: 12.6% | 
50 | O=C(CCc1nc2ccccc2c(=O)[nH]1)Nc1nc(-c2cccs2)cs1 | inactive: -3.88% | 
51 | O=C(COC(=O)COc1ccccc1[N+](=O)[O-])NC1CCCC1 | inconclusive: -3.48% | 
52 | Cc1ccc2c(c1)c1nnc(SCC(=O)N3CCCc4ccccc43)nc1n2CC(=O)O | inactive: -27.6% | 
53 | CCC(C)(C)NC(=O)C(c1sccc1C)N(Cc1ccco1)C(=O)c1csnn1 (stereo not drawn) | inactive: 7.26% | 

Three records drawn at random from those above:
Row | SMILES | activity change, negative = inhibition | Potency
45 | Cc1ccccc1C(=O)N/N=C/c1ccncc1 |  | inconclusive: 14.1 µM [falling, partial curve]
53 | CCC(C)(C)NC(=O)C(c1sccc1C)N(Cc1ccco1)C(=O)c1csnn1 (stereo not drawn) | inactive: 7.26% | 
35 | COc1ccc(N=Cc2[nH]c3ccccc3c2O)cc1 |  | inconclusive: 20 µM [falling, partial curve, poor fit]
